This passage reports binding results from paper PMC7578833.

B1: MIC19 (ChChD3), endogenous in HT-4 cells (protein, UniProt Q9CRB9 1-227)
chain: MGGTASTRRVTFEADENENITVVKGIRLSENVIDRMKESSPSGSKSQRYSSVYGASVSDEDLKRRVAEELALEQAKKESEHQRRLKQARDLERERAAANEQLTRAVLRERISSEEERMKAKHLARQLEEKDRVMRKQDAFYKEQLARLEERSSEFYKVTTEEYQKAAEEVEAKFKRYEYHPVCADLQTKILQCYRQNTQQTLSCSALASQYMHCVNHAKQSMLEKGG
B2: Metaxin-2 (MTX-2), endogenous in HT-4 cells (protein, UniProt O88441 1-263)
chain: MSLVAEAFVSQIAATEPWPENATLYQQLRGEQILLSDNAASLAVQAFLQMCNLPVKVVCRANAEYMSPSGKVPFIHVGNQVVSELGPIVQFVKAKGHSLSDGLDEVQKAEMKAYMELVNNMLLTAELYLQWCDEATVGEITIARYGSPYPWPLNHILAYQKQWEVKRKMKAIGWGNKTLDQVLEDVDQCCQALSQRLGTQPYFFNKQPTELDALVFGHLYTILTTQLTSDELSEKVKNYSNLLAFCRRIEQHYFEDWGKGRLS
B3: SAMM50, endogenous in HT-4 cells (protein, UniProt Q8BGH2 1-469)
chain: MGTVHARSLEPLPSSGTDFGALGEEAEFVEVEPEAKQEILENKDVVVQHVHFDGLGRTKDDIIICEIGEVFKAKNLIEVMRRSHEAREKLLRLGIFRQVDVLIDTCHGEDALPNGLDVTFEVTELRRLTGSYNTMVGNNEGSMVLGLKLPNLLGRAEKVTFQFSYGTKETSYGLSFFKPQPGNFERNFSVNLYKVTGQFPWSSLRETDRGVSAEYSFPLWKTSHTVKWEGVWRELGCLSRTASFAVRKESGHSLKSSLSHAMVIDSRNSSILPRRGALFKVNQELAGYTGGDVSFIKEDFELQLNKPLALDSVFSTSLWGGMLVPIGDKPSSIADRFYLGGPTSVRGFSMHSIGPQSEGDYLGGEAYWAGGLHLYTPLPFRPGQGGFGELFRTHFFLNAGNLCNLNYGEGPKAHIRKLAECIRWSYGAGVVLRLGNIARLELNYCIPMGVQGGDRICDGVQFGAGIRFL

No constants are given. Whether binding was seen depends on the method and setting. Binding seen in cells or lysates may run through a third protein. A yes stands for co-enrichment or nearness to the bait. Other partners may have been found.

The assay has as its target Strep-tagged PDE2A2. In words: affinity purification with mass spectrometry; Strep-tagged PDE2A2 (control: Strep-tagged EF-Ts) overexpressed in HT-4 mouse neuroblastoma cells; immunoprecipitated from lysate with anti-StrepMab-Immo antibody coupled to Dynabeads Protein G; label-free quantification (MaxQuant), two biological replicates, t-test at 10% FDR.
With B1, the binding entry is listed as “binds”. The result for B2 reads “binds”; that for B3, “binds”.
